PubChem BioAssay AID602196 – INSERM, 2012

- Purpose: 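Modifiers of cisplatin sensitivity in A549 cells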
- Cell system: human A549 lung cancer cells
- Reagents: siRNA pair against human genes
- Duration: 48 h transfection before cisplatin; time from cisplatin to read-out not stated
- Conditions: cisplatin at a dose killing half of control-siRNA cells; exact dose and duration not given
- Detection: 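Shift in cisplatin death relative to control siRNA, from -50 (all cells die) to +50 (no cells die); siRNAs harmful on their own scored 0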
- Direction: two-siRNA summed score (-2 to +2): higher = both siRNAs protect from cisplatin killing; -2 means both sensitise; mean protection from cisplatin (shift in death) and protection from cisplatin (shift in death), siRNA C: higher = protection from cisplatin killing
- Rule for the call: 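Each siRNA scores 0 if harmful alone by LDH or WST-1, otherwise +1 if it reduces and -1 if it increases cisplatin killing; a gene is active when both siRNAs agree (sum +2 or -2)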
- Calls: active = both siRNAs shift cisplatin killing the same way; inactive = no consistent shift, or siRNA harmful alone
The whole screen tested about 23,000 reagents; shown is a part drawn at random. Of all reagents, 455 (2%) are marked active. 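Active includes both protection and sensitisation; some change values fall well beyond the stated -50 to +50 range.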 Further read-outs or replicates are left out here. No sequences are given here. The record does not give: the amount of reagent.

target gene	PubChem SID	two-siRNA summed score (-2 to +2)	mean protection from cisplatin (shift in death) (%)	protection from cisplatin (shift in death), siRNA C (%)	Outcome
LOC389267	SID131510033	0	2.8	5.6	inactive
LOC441795	SID131520283	1	9.4	14.4	inactive
MRPL13	SID131509646	0	2.4	-1.1	inactive
BCOR	SID131519026	1	1.2	-11.3	inactive
MAP3K7	SID131522527	1	19.7	27.4	inactive
MST1	SID131519844	1	7.7	-3.5	inactive
LYPD5	SID131505189	0	-3.6	26.4	inactive
SCN4A	SID131515256	0	8.9	23.1	inactive
SMIM43	SID131507532	0	0	7.4	inactive
MMP27	SID131506785	0	-1	7.7	inactive
LOC441582	SID131507191	0	-0.4	1.7	inactive
RAB9B	SID131503269	0	-11.5	-16.4	inactive
TPO	SID131512682	0	5.7	3.5	inactive
LOC440717	SID131507026	0	-0.7	2.9	inactive
LOC389607 (retired record)	SID131521428	1	13.4	11.2	inactive
LINC02481	SID131512044	0	5.1	5.2	inactive
APOLD1	SID131502398	-1	-2.7	-19.6	inactive
HTR1E	SID131503712	0	-8.3	-2	inactive
AADAC	SID131518946	1	-2.1	7.2	inactive
PLEKHS1	SID131510229	0	3	-9.5	inactive
LONRF2	SID131522285	1	17.4	33.6	inactive
LOC389107	SID131510503	0	3.3	11.5	inactive
MIR137HG	SID131513058	0	6.1	8.4	inactive
LOC439954	SID131509643	0	2.4	6.1	inactive
RTL6	SID131509056	0	1.8	1.5	inactive
RSRP1	SID131520812	1	11.2	20.9	inactive
GUCY2C	SID131503239	0	-11.8	-24.7	inactive
SNRPD2	SID131518875	0	34.9	37.3	inactive
FKBP1A	SID131510812	0	3.6	3.9	inactive
CSMD2	SID131508517	0	1.1	-5.8	inactive
SNX9	SID131505434	0	-3.1	5	inactive
TCF21	SID131517595	0	14	2.6	inactive
YY1AP1	SID131521495	1	13.7	21.1	inactive
CACHD1	SID131506776	0	-1	-8.2	inactive
PIK3CA	SID131510226	0	3	-1.3	inactive
NRG1	SID131520400	1	9.8	12.7	inactive
LOC401387	SID131507455	0	-0.1	-0.7	inactive
CHMP4A	SID131516292	0	10.6	16.5	inactive
SH3BP2	SID131502028	-1	-5.8	-14.3	inactive
MANEA	SID131508376	0	1	-4.6	inactive
IFT38	SID131501112	-1	-12.2	-19.8	inactive
LOC442612	SID131517146	0	12.5	4.4	inactive
IFNAR1	SID131503200	0	-12.2	-23.5	inactive
ERCC6	SID131508368	0	1	32.8	inactive
OPALIN	SID131504787	0	-4.5	-10	inactive
LOC343221	SID131502159	-1	-4.9	4.2	inactive
TPCN2	SID131508897	0	1.6	15	inactive

Ordered by “two-siRNA summed score (-2 to +2)” (ascending): 12 of the entries above.
target gene	PubChem SID	two-siRNA summed score (-2 to +2)	mean protection from cisplatin (shift in death) (%)	protection from cisplatin (shift in death), siRNA C (%)	Outcome
LOC389267	SID131510033	0	2.8	5.6	inactive
MRPL13	SID131509646	0	2.4	-1.1	inactive
LYPD5	SID131505189	0	-3.6	26.4	inactive
SCN4A	SID131515256	0	8.9	23.1	inactive
SMIM43	SID131507532	0	0	7.4	inactive
MMP27	SID131506785	0	-1	7.7	inactive
LOC441582	SID131507191	0	-0.4	1.7	inactive
RAB9B	SID131503269	0	-11.5	-16.4	inactive
LOC441795	SID131520283	1	9.4	14.4	inactive
BCOR	SID131519026	1	1.2	-11.3	inactive
MAP3K7	SID131522527	1	19.7	27.4	inactive
MST1	SID131519844	1	7.7	-3.5	inactive

More reagents follow:
target gene	PubChem SID	two-siRNA summed score (-2 to +2)	mean protection from cisplatin (shift in death) (%)	protection from cisplatin (shift in death), siRNA C (%)	Outcome
ATXN2L	SID131500482	-1	-25.9	-30.1	inactive
LOC442132	SID131510795	0	3.6	10.5	inactive
HAAO	SID131509363	0	2.1	10.5	inactive
LOC126435	SID131518075	0	16.3	6.9	inactive
LOC440150	SID131508956	0	1.7	15.9	inactive
PLXNB3	SID131500500	-1	-24.4	-24.1	inactive
KIAA1126	SID131510931	0	3.8	12.1	inactive
PDLIM4	SID131501343	-1	-10.4	3.3	inactive
SYVN1	SID131521938	1	15.5	14.7	inactive
IFI6	SID131505594	0	-2.9	3.9	inactive
PTPDC1	SID131506074	0	-2.1	-5.5	inactive
EIF2S1	SID131509833	0	2.6	-4.3	inactive
DENND4B	SID131504640	0	-4.9	-0.8	inactive
ROCK2	SID131513126	0	6.2	1.3	inactive
LOC390944	SID131519561	1	6.3	-0.1	inactive
IBTK	SID131520349	1	9.6	15.5	inactive
NME3	SID131505340	0	-3.3	22.3	inactive
MAF	SID131517534	0	13.8	15	inactive
DEFB105A	SID131510820	0	3.7	5	inactive
SOAT1	SID131515136	0	8.7	11.5	inactive
LINC01622	SID131512220	0	5.2	4	inactive
TNNI2	SID131520599	1	10.4	-3.7	inactive
COG2	SID131500804	-1	-15.8	-27	inactive
GPSM2	SID131503690	0	-8.4	-26.8	inactive
TMEM237	SID131519937	1	8.1	-5.3	inactive
ARFGEF2	SID131516425	0	10.8	5.2	inactive
